This is an account of results in PubChem BioAssay AID330 (DTP/NCI, 2004).

The list is a part of this screen's results and no random one: it is rich in T/C values a quarter to a half above the control, in often repeated tests (any T/C) and in doses without a T/C. Other doses and runs of a compound stand elsewhere. T/C is the treated group as % of the vehicle group. Some entries give survivors of the animals treated and no T/C: the source files T/C as zero there, which appears to mark a toxic dose or a test without result, not a measured value. Some survivor counts are full or nearly so, which does not show that the dose was tolerated: survival well below the control is almost never listed, so the zero probably covers shortened survival too. Survivors were counted at the toxicity check, usually on the fifth day, unless a day is given; later deaths do not show. Schedules are NCI's codes, read here as Q, the interval in days (D) or hours (H), X, the number of doses. Some doses were run more than once; the results are listed from low to high. Some structures stand for samples that the source files as different forms (salt, stereo form or complex); doses refer to the form tested. Counts like (3×) give the number of equal values in this list. For survival time, the PubChem record calls one and a half times the control and up active, and a quarter to a half above the control has no call in these data; cut-offs in other NCI protocols can differ. Some T/C values are followed by the survivors on the day toxicity was checked, most often the fifth; without a count, all were alive then.

In the test the test system is P388 leukemia ip, CD2F1 mice, survival T/C. The test is described as follows: NCI In Vivo Anticancer Drug Screen. Data for tumor model P388 Leukemia (intraperitoneal) in CD2F1 (CDF1) mice. The note with it: T/C endpoint: median survival time, higher T/C = longer survival.
Where [1] appears, read: dose: 400.0 mg/kg/injection, schedule: Q01DX009 (ip), vehicle: distilled water + Tween-80.
The mark [2] stands for this setting: dose: 240.0 mg/kg/injection, schedule: Q01DX005 (ip), vehicle: saline with Tween-80.
Setting [3] is: dose: 100.0 mg/kg/injection, schedule: Q01DX005 (ip), vehicle: saline with Tween-80.
The mark [4] stands for this setting: dose: 200.0 mg/kg/injection, schedule: Q01DX005 (ip), vehicle: saline with Tween-80.
[5] abbreviates: dose: 240.0 mg/kg/injection, schedule: Q01DX005 (ip), vehicle: Klucel (hydroxypropylcellulose) (HPC).
Where [6] appears, read: dose: 100.0 mg/kg/injection, schedule: Q01DX005 (ip), vehicle: Klucel (hydroxypropylcellulose) (HPC).
Where [7] appears, read: dose: 200.0 mg/kg/injection, schedule: Q01DX005 (ip), vehicle: Klucel (hydroxypropylcellulose) (HPC).
[8] abbreviates: dose: 400.0 mg/kg/injection, schedule: Q01DX001 (ip), vehicle: saline.

For the molecule `O=C(Nc1ccc([N+](=O)[O-])cc1)Nc1nncs1`, the T/C (dose: 200.0 mg/kg/injection, schedule: Q01DX009 (ip), vehicle: distilled water + Tween-80) was 132 % of control [5 of 6 alive]. Further, under setting [1], the T/C is 142 % of control [5 of 6 alive] and the survivor count is 1 of 6.
Turning to `N#CC1CC=CCN1CCc1ccccc1` (stereo unspecified), the survivor count is reported as 0 of 5 (dose: 100.0 mg/kg/injection, schedule: Q01DX005 (ip), vehicle: saline + Tween-80 + alcohol) and 0 of 5 (dose: 200.0 mg/kg/injection, schedule: Q01DX005 (ip), vehicle: saline + Tween-80 + alcohol).
For the molecule `Cc1ccc(NC(=O)/C=C2\CONC(c3ccccc3)=N2)cc1`, the survivor count under setting [2] is reported as 6 of 6.
For `Cc1c(COC(=O)NC(C)C)c(COC(=O)NC(C)C)c(-c2ccccc2)n1-c1ccccc1`, the T/C is, setting by setting: (dose: 12.5 mg/kg/injection, schedule: Q01DX005 (ip), vehicle: saline with Tween-80) 137 % of control; (dose: 25.0 mg/kg/injection, schedule: Q01DX005 (ip), vehicle: saline with Tween-80) 148 % of control; under setting [3], 131 % of control. Further, the survivor count was 6 of 6 under setting [3] and 6 of 6 under setting [4].
Turning to `CCN(CC)CC(C)(C)C(=O)/C=C/c1ccc(/C=C/C(=O)C(C)(C)CN(CC)CC)cc1`, the T/C was 126 and 130 % of control (dose: 15.0 mg/kg/injection, schedule: Q01DX005 (ip), vehicle: saline); 134 and 138 % of control (dose: 30.0 mg/kg/injection, schedule: Q01DX005 (ip), vehicle: saline). The survivor count (dose: 60.0 mg/kg/injection, schedule: Q01DX005 (ip), vehicle: saline) was 4 of 6 and 6 of 6; the survivor count (dose: 120.0 mg/kg/injection, schedule: Q01DX005 (ip), vehicle: saline) is 0 of 6; the survivor count (dose: 240.0 mg/kg/injection, schedule: Q01DX005 (ip), vehicle: saline) is given as 0 of 6.
Consider `C=CCN(CC=C)c1cc(NN)nnc1Cl`, for which the survivor count is, setting by setting: (dose: 100.0 mg/kg/injection, schedule: Q01DX009 (ip), vehicle: other) 0 of 6; (dose: 200.0 mg/kg/injection, schedule: Q01DX009 (ip), vehicle: other) 0 of 6; (dose: 400.0 mg/kg/injection, schedule: Q01DX009 (ip), vehicle: other) 0 of 6.
Take `CC1/C(=N/Nc2ccc([N+](=O)[O-])cc2)CC2C3(C)CCC2(C(C)C(=O)O)C(=O)C13` (stereo unspecified): where the note is “dose: 200.0 mg/kg/injection, schedule: Q04DX003 (ip), vehicle: Klucel (hydroxypropylcellulose) (HPC)”, the survivor count is reported as 6 of 6.
`CCOC(=O)NCCCCCCNC(=O)OCC`: for the setting “dose: 400.0 mg/kg/injection, schedule: Q01DX005 (ip), vehicle: Klucel (hydroxypropylcellulose) (HPC)”, the survivor count is 0 of 6 and 4 of 6.
Consider `CC1=C(Sc2ccc(Br)cc2)C(N)Nc2nc(N)nc(N)c21` (stereo unspecified), for which the survivor count under setting [2] is 5 of 6.
With `CNC(=S)SC1=NS(=O)(=O)c2ccccc2N1`, under setting [5], the T/C was 134 % of control (2×).
For `CN(CCNN1CCCC1)Cc1ccccc1Cl`, where the note is “dose: 200.0 mg/kg/injection, schedule: Q01DX005 (ip), vehicle: saline”, the survivor count is given as 0 of 5.
On to `O=C1OI(Cl)c2ccccc21`, for which the survivor count under setting [2] is on record as 0 of 6.
For `C=C(Cl)C(=NC(C)(C)C)Nc1ccc(Cl)cc1`, the survivor count is 1 of 5 (dose: 50.0 mg/kg/injection, schedule: Q01DX005 (ip), vehicle: Klucel (hydroxypropylcellulose) (HPC)); 0 of 5 under setting [6]; 0 of 5 (2×) under setting [7].
As for `CC1=CC(=O)C2OC2C1=O` (stereo unspecified), the survivor count was 0 of 6 (dose: 10.0 mg/kg/injection, schedule: Q04DX002 (ip), vehicle: saline with Tween-80); 0 of 6 (dose: 20.0 mg/kg/injection, schedule: Q04DX002 (ip), vehicle: saline with Tween-80); 0 of 6 (dose: 100.0 mg/kg/injection, schedule: Q04DX002 (ip), vehicle: saline with Tween-80); 0 of 6 (dose: 200.0 mg/kg/injection, schedule: Q04DX002 (ip), vehicle: saline with Tween-80); 0 of 6 (dose: 400.0 mg/kg/injection, schedule: Q04DX002 (ip), vehicle: saline with Tween-80).
Take `NNC(=O)CCCl`: the survivor count is, setting by setting: (dose: 42.0 mg/kg/injection, schedule: Q01DX009 (ip), vehicle: saline) 5 of 6; (dose: 84.0 mg/kg/injection, schedule: Q01DX009 (ip), vehicle: saline) 0 of 6; (dose: 168.0 mg/kg/injection, schedule: Q01DX009 (ip), vehicle: saline) 0 of 6.
On to `N#CCc1ccccc1C#N`, for which the survivor count by setting is: (dose: 50.0 mg/kg/injection, schedule: Q01DX005 (ip), vehicle: saline with Tween-80) 3 of 5; under setting [3], 0 of 5; under setting [4], 0 of 5.
Consider `O=C(O)CCc1cccnc1`, for which the T/C (dose: 600.0 mg/kg/injection, schedule: Q01DX009 (ip), vehicle: saline with Tween-80) was 127 % of control.
Consider `CCCCOC(=O)c1ccc(NC(=O)Nc2ccccc2OC)cc1`, for which the survivor count (dose: 100.0 mg/kg/injection, schedule: Q04DX003 (ip), vehicle: saline with Tween-80) was 6 of 6.
Regarding `NC(=S)n1nc(-c2cccs2)c(N=Nc2ccc(Cl)cc2)c1C(F)(F)F`, the survivor count under setting [5] is listed as 6 of 6.
`CC1(O)C=CP(C)(=O)C1` (stereo unspecified): the survivor count (dose: 50.0 mg/kg/injection, schedule: Q01DX009 (ip), vehicle: saline) was 6 of 6.
Turning to `CCCCCCCCCCCCCCCC(=O)N(CCC#N)CCC#N`, the T/C (dose: 50.0 mg/kg/injection, schedule: Q01DX009 (ip), vehicle: saline with Tween-80) was 140 % of control.
On to `Nc1ccc(Nc2ccncc2)cc1`, for which the survivor count runs as follows: (dose: 50.0 mg/kg/injection, schedule: Q01DX009 (ip), vehicle: Klucel (hydroxypropylcellulose) (HPC)) 3 of 6; (dose: 100.0 mg/kg/injection, schedule: Q01DX009 (ip), vehicle: Klucel (hydroxypropylcellulose) (HPC)) 0 of 6; (dose: 200.0 mg/kg/injection, schedule: Q01DX009 (ip), vehicle: Klucel (hydroxypropylcellulose) (HPC)) 0 of 6.
Turning to `CN(C)CCN1C(=O)Cc2ccccc2C1=O`, the survivor count was 0 of 6 (dose: 100.0 mg/kg/injection, schedule: Q01DX001 (ip), vehicle: saline); 0 of 6 (dose: 200.0 mg/kg/injection, schedule: Q01DX001 (ip), vehicle: saline); 0 of 6 under setting [8].
Take `O=[n+]1c2c(n([O-])c3cc(Cl)c(Cl)cc31)CCCC2`: the survivor count (dose: 100.0 mg/kg/injection, schedule: Q01DX009 (ip), vehicle: saline with Tween-80) was 4 of 6 and the survivor count (dose: 200.0 mg/kg/injection, schedule: Q01DX009 (ip), vehicle: saline with Tween-80) is reported as 0 of 6.
Turning to `COC1c2ccccc2C=CN1C#N` (stereo unspecified), where the note is “dose: 200.0 mg/kg/injection, schedule: Q01DX005 (ip), vehicle: distilled water + Tween-80 + alcohol”, the survivor count is on record as 0 of 6.
As to `ONC1CC(NO)CC(NO)C1` (stereo unspecified), under setting [8], the survivor count is 6 of 6.
For the molecule `CC(C)Cn1c(C(C)C)nc([N+](=O)[O-])c1Sc1ncn[nH]1`, the T/C under setting [6] was 131 % of control; the T/C under setting [7] is 131 and 137 % of control.
